# Test results reported in PubChem BioAssay AID624297 (National Center for Advancing Translational Sciences (NCATS), 2012).
# Hit rate of the full screen: of about 340,000 compounds, about 6,200 (1.8%) were called active. The inconclusive results got no clear call from the source; some entries with a clear call stand among them for comparison. Calls come from the whole dose curve; as a rule, active = well fitted activation curve with a large enough effect; inconclusive = small, poorly fitted or top-dose-only effect; inactive = no such curve, though single readings can be large or run the other way. Where the call is inconclusive, the potency comes from a doubtful curve fit.
# Test: A quantitative high throughput screen for small molecules that induce DNA re-replication in SW480 colon adenocarcinoma cells. For re-replication activation: % of control where 0% means no effect. Note: nearly all actives have a fitted effect of over 55% in size.
# Conditions: Hoechst DNA content imaging, 48 h; re-replication activation: at 46.1 µM (top of the series) unless noted
# In short: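 DNA re-replication was detected as more nuclei of elevated Hoechst intensity after 48 hr exposure to compound (23 nL pinned per well of 250 cells).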
# Potency is the fitted concentration of half-maximal effect.
SMILES,Potency,re-replication activation
COCc1cc(CN2CCN(C)CC2)c(O)c2ncccc12,"inconclusive: 29.1 µM [activator, single point]",–
COc1ccc2c(c1)[nH]c1c(=O)n(CCN3CCOCC3)cnc12,"inconclusive: 0.058 µM [activator, full curve, poor fit]",–
Cc1ccc2c(c1)N(C)/C(=C/c1cccc[n+]1C)S2,"inconclusive: 16.4 µM [activator, single point]",–
O=[N+]([O-])c1ccc(/C=C2\CCC(C3=CCCC3)=C2N2CCOCC2)cc1,"inconclusive: 20.6 µM [activator, single point]",–
CCc1cccc(CC)c1NC(=O)CSc1nnc(C2CC2)n1C,–,inactive: -11.5%
COc1ccccc1[C@@H]1C(c2cccc(Cl)c2)=NN(c2ccc(Br)cc2)[C@H]1C(=O)N1CCOC1=O,active: 3.26 µM,–
O=C(CN1CCOCC1)N/N=C/c1c(O)ccc2ccccc12,"inconclusive: 2.59 µM [activator, full curve]",–
CCOC(=O)C(C)(C)N(Cc1ccccc1C)S(=O)(=O)c1ccc(Cl)c([N+](=O)[O-])c1,"inconclusive: 23.1 µM [activator, single point]",–
CC1CC(C)CN(C(=O)c2ccc(NC(=O)c3ccc(=O)[nH]c3)cc2)C1 (centres undefined),–,inactive: 2.34%
COc1ccc(C(=O)CSc2nnc(CCc3ccccc3)n2-c2ccccc2)cc1,–,inactive: 17.3%
O=C(COc1ccc(F)cc1)Nc1nc(-c2ccccn2)cs1,"inconclusive: 16.4 µM [activator, single point]",–
CC1(c2ccc(Cl)cc2)NC(=O)CS1 (centres undefined),–,inactive: -12%
O=C(CCc1nc(-c2ccc(F)cc2)no1)NCc1ccccc1CN1CCOCC1,–,inactive: -1.48%
Oc1c(Br)cc(/C=N/n2c(-c3ccccc3)n[nH]c2=S)c(O)c1Br,"inconclusive: 6.51 µM [activator, single point]",–
S=C(Nc1ccccc1Cl)N1CCC(c2ccccc2)C1 (centres undefined),"inconclusive: 18.4 µM [activator, single point]",–
CC(Oc1ccc2c3c(c(=O)oc2c1)CCCC3)C(=O)NCCN1CCOCC1 (centres undefined),–,inactive: -6.17%
O=C(Oc1ccccc1C(=O)N1CCOCC1)c1ccc(Br)cc1,–,inactive: -3.2%
O=C(NCCO)c1c(-c2ccc3c(c2)OCO3)noc1-c1ccsc1,–,inactive: 0.793%
N#C/C(=C\c1ccc(OCc2ccc(Cl)cc2)cc1)C(=O)Nc1cccc(C(=O)O)c1,"inconclusive: 0.184 µM [activator, full curve, poor fit]",–
CCN(CC)C(C(=O)Nc1ccc(C(C)C)cc1)c1ccc2c(c1)OCO2 (centres undefined),"inconclusive: 29.1 µM [activator, partial curve, poor fit]",–
O=C(/C=C/c1ccco1)Nc1ccc2c(c1)OCO2,"inconclusive: 20.6 µM [activator, single point]",–
CC(OC(=O)CNC(=O)c1ccc2ccccc2c1)C(=O)N(C)C1CCCCC1 (centres undefined),"inconclusive: 11.6 µM [activator, partial curve, poor fit]",–
O=C(N[C@@H](Cc1c[nH]c2ccccc12)C(=O)O)c1ccc(Cl)cc1,"inconclusive: 0.0116 µM [activator, full curve, poor fit]",–

SMILES,Potency,re-replication activation
CCO[C@H]1OC(C(=O)N2CCN(Cc3ccccc3)CC2)=C[C@@H](c2ccccc2)[C@@H]1CCCO,"inconclusive: 0.0731 µM [activator, full curve, poor fit]",–
COc1ccc(CNC(=S)Nc2cc(C)cc(C)c2)cc1,–,inactive: -5.36% [at 9.22 µM]
O=C1/C(=C\c2cccnc2)CCc2ccccc21,"inconclusive: 29.1 µM [activator, single point]",–
CC(=O)C1=C(O)CCC1=NCCc1ccccc1,"inconclusive: 29.1 µM [activator, single point]",–
Oc1cc(NCc2ccc(Cl)cc2)cc2cccnc12,–,inactive: 13.2%
Cc1ccccc1NC(=O)Cc1nc(COC(=O)Cc2c(F)cccc2Cl)cs1,–,inactive: -2.38%
Cc1nc2[nH]c(=O)n(O)c(=O)c2s1,"inconclusive: 29.1 µM [activator, single point]",–
Cc1csc(NC(=O)c2cn3ccccc3n2)n1,"inconclusive: 3.26 µM [activator, single point]",–
Cc1cc(C)c2c(N)c(C(=O)Nc3nccs3)sc2n1,"inconclusive: 7.31 µM [activator, single point]",–
COc1ccccc1C(=O)N/C(N)=N/c1nc2ccccc2o1,"inconclusive: 29.1 µM [activator, single point]",–
Cc1ccc(C2Nc3ccc4ccccc4c3C3=C2C(=O)CC(C)(C)C3)o1 (centres undefined),"inconclusive: 29.1 µM [activator, single point]",–
COC(=O)c1sc2nc(CN3CCN(c4cccc(C(F)(F)F)c4)CC3)[nH]c(=O)c2c1C,–,inactive: -6.81%
COc1ccc(-c2ccc3c(c2)C2CC3CCN2C(=O)C(C)(C)C)cc1 (centres undefined),"inconclusive: 4.61 µM [activator, single point]",–
CCn1cc([N+](=O)[O-])c(C(=O)N2N=C(c3cccc4ccccc34)CC2c2ccccc2O)n1 (centres undefined),"inconclusive: 35.5 µM [activator, partial curve, poor fit]",–
Cc1ccc(C)c(N2CCN(C(=S)Nc3ccc4nc(N5CCOCC5)cc(C)c4c3)CC2)c1,"inconclusive: 29.1 µM [activator, single point]",–
O=C(CNC(=O)c1ccccn1)N=Nc1c(O)[nH]c2ccccc12,"inconclusive: 18.4 µM [activator, single point]",–
COc1cc(/C=C2/SC(=Nc3ccc(O)cc3)NC2=O)cc(OC)c1O,active: 20.6 µM,–
OCC(O)C(O)C(O)C(O)CO (centres undefined),inactive,–
Cc1ccc(F)c(C2=CC(=O)C[C@H](c3ccc(F)cc3)C2)c1,"inconclusive: 16.4 µM [activator, partial curve, poor fit]",–
CCOc1ccc(N(CC(=O)NC2CCCCCC2)S(=O)(=O)c2ccccc2)cc1,–,inactive: -23.1%
COc1cc2oc3cc(C#Cc4ccc(N)cc4)ccc3c(=O)c2cc1OC,active: 9.2 µM,–
Cc1ccc(-c2ccc(C)c(N)c2C)c(C)c1N,"inconclusive: 0.461 µM [activator, full curve, poor fit]",–
Cc1c(C)c2ccc(OCC(=O)Nc3ccccn3)c(C)c2oc1=O,–,inactive: -14%

SMILES,Potency,re-replication activation
CC(C)CCNC(=O)CN(Cc1ccc2c(c1)OCO2)C(=O)Cn1nnc(-c2cccs2)n1,"inconclusive: 20.6 µM [activator, partial curve, poor fit]",–
O=C(N=Nc1c(O)[nH]c2ccc(Br)cc12)c1ccccc1-n1cccc1,"inconclusive: 0.651 µM [activator, full curve, poor fit]",–
COc1ccc(Cl)cc1C=CC=Nc1ccc(S(N)(=O)=O)cc1,"inconclusive: 25.9 µM [activator, single point]",–
CCC(=O)Nc1ccc(C(=O)Cn2ncc(Cl)c(Cl)c2=O)cc1,"inconclusive: 4.11 µM [activator, partial curve, poor fit]",–
COc1ccc(/C=C/C(=O)NC(C)(C)C)cc1S(=O)(=O)N1CCOCC1,–,inactive: 22%
O=C(Cn1cnc2c(NCc3ccccc3)ncnc21)NCc1ccccc1,active: 11.6 µM,–
O=C1C2CC=CCC2C(=O)N1Nc1ccccc1 (centres undefined),"inconclusive: 6.51 µM [activator, partial curve, poor fit]",–
Cc1ccc(C(c2nnnn2CC2CCCO2)N2CCN(Cc3ccccc3)CC2)cc1 (centres undefined),"inconclusive: 0.731 µM [activator, partial curve, poor fit]",–
Cc1ccccc1Nc1nnc(SCC(=O)NC(=O)NCc2ccco2)s1,"inconclusive: 29.1 µM [activator, single point]",–
COc1ccc(-c2[nH]c3ccccc3c2SCCN)cc1,"inconclusive: 20.6 µM [activator, single point]",–
O=C(CN=C1NC(=O)C(c2ccccc2)(c2ccccc2)N1)NCc1ccc(F)cc1,"inconclusive: 29.1 µM [activator, partial curve, poor fit]",–
COc1ccccc1N1CCN(c2nc(C)cc(C)c2C#N)CC1,"inconclusive: 20.6 µM [activator, single point]",–
O=C(CCCOc1ccccc1)Nc1cccc(S(=O)(=O)N2CCCCCC2)c1,–,inactive: -21.4%
COc1ccccc1CN1CC(C(=O)N(CCO)Cc2cccs2)CCC1=O (centres undefined),–,inactive: -1.02%
COc1ccc(/C=C/C(=O)Nc2cccc(S(=O)(=O)N3CCOCC3)c2)cc1OC,"inconclusive: 29.1 µM [activator, single point]",–
CCOC(=O)c1cc(C(=O)OCC)c(=O)[nH]c1SCc1ccccc1,"inconclusive: 2.06 µM [activator, single point]",–
O=C(Nc1nc(-c2cccc3ccccc23)cs1)c1ccc2c(c1)S(=O)(=O)c1ccccc1C2=O,"inconclusive: 29.1 µM [activator, partial curve, poor fit]",–
CC(=O)NCc1ccc(C(=O)CCl)cc1,"inconclusive: 29.1 µM [activator, single point]",–
CCCCn1c(N)c(N(C)C(=O)c2ccc(-n3cccn3)cc2)c(=O)[nH]c1=O,"inconclusive: 23.1 µM [activator, single point]",–
CCOc1ccc2c(c1)/C(=C(\C(Cl)=C(Cl)Cl)[N+](=O)[O-])N2,"inconclusive: 6.51 µM [activator, single point]",–
O=C(C1CCCN(S(=O)(=O)c2ccccc2)C1)N1CCN(c2ccccc2)CC1 (centres undefined),–,inactive: -4.43%
O=C(Nc1cccc(S(=O)(=O)NC2=NCCC2)c1)c1ccc(=O)[nH]c1,–,inactive: -5.33%
Cc1nn2c(SCC(=O)c3cccs3)cc(C(C)(C)C)nc2c1-c1ccccc1,"inconclusive: 29.1 µM [activator, single point]",–

# Arranged by number of heavy atoms (low to high): part of the list above
SMILES,Potency,re-replication activation
CC(=O)NCc1ccc(C(=O)CCl)cc1,"inconclusive: 29.1 µM [activator, single point]",–
O=C1C2CC=CCC2C(=O)N1Nc1ccccc1 (centres undefined),"inconclusive: 6.51 µM [activator, partial curve, poor fit]",–
CCOc1ccc2c(c1)/C(=C(\C(Cl)=C(Cl)Cl)[N+](=O)[O-])N2,"inconclusive: 6.51 µM [activator, single point]",–
COc1ccc(-c2[nH]c3ccccc3c2SCCN)cc1,"inconclusive: 20.6 µM [activator, single point]",–
COc1ccc(Cl)cc1C=CC=Nc1ccc(S(N)(=O)=O)cc1,"inconclusive: 25.9 µM [activator, single point]",–
COc1ccccc1N1CCN(c2nc(C)cc(C)c2C#N)CC1,"inconclusive: 20.6 µM [activator, single point]",–
O=C(Nc1cccc(S(=O)(=O)NC2=NCCC2)c1)c1ccc(=O)[nH]c1,–,inactive: -5.33%
COc1ccc(/C=C/C(=O)NC(C)(C)C)cc1S(=O)(=O)N1CCOCC1,–,inactive: 22%
Cc1ccccc1Nc1nnc(SCC(=O)NC(=O)NCc2ccco2)s1,"inconclusive: 29.1 µM [activator, single point]",–
O=C(Cn1cnc2c(NCc3ccccc3)ncnc21)NCc1ccccc1,active: 11.6 µM,–
O=C(C1CCCN(S(=O)(=O)c2ccccc2)C1)N1CCN(c2ccccc2)CC1 (centres undefined),–,inactive: -4.43%
COc1ccc(/C=C/C(=O)Nc2cccc(S(=O)(=O)N3CCOCC3)c2)cc1OC,"inconclusive: 29.1 µM [activator, single point]",–
O=C(CN=C1NC(=O)C(c2ccccc2)(c2ccccc2)N1)NCc1ccc(F)cc1,"inconclusive: 29.1 µM [activator, partial curve, poor fit]",–
Cc1ccc(C(c2nnnn2CC2CCCO2)N2CCN(Cc3ccccc3)CC2)cc1 (centres undefined),"inconclusive: 0.731 µM [activator, partial curve, poor fit]",–
CC(C)CCNC(=O)CN(Cc1ccc2c(c1)OCO2)C(=O)Cn1nnc(-c2cccs2)n1,"inconclusive: 20.6 µM [activator, partial curve, poor fit]",–
O=C(Nc1nc(-c2cccc3ccccc23)cs1)c1ccc2c(c1)S(=O)(=O)c1ccccc1C2=O,"inconclusive: 29.1 µM [activator, partial curve, poor fit]",–
